# Experimental data reported in US10473647B1, “Peptides for use in treatment and diagnosis of type 1 diabetes” (ImmusanT, Inc., priority 2014, dated 2019).
# Some of these results come from one statement about several compounds together.
# How the values were obtained:
# Assay type in all cases: cell-based, human
# Conditions in all cases: six T1D subjects
# undepleted whole blood [1] = assay: Whole blood cytokine assay, IP-10, undepleted blood, number of subjects with >=1.25 fold over medium (Example 2)
# Description: (§1) The depleted blood as well as the remaining undepleted whole blood was then utilized in whole blood cytokine release assays. T-cell cytokine responses were assessed for reactivity to pools of 17mer peptides encompassing all unique 12mer amino-acid sequences derived from pancreatic islet antigens commonly recognized by autoantibodies in T1D: insulin, glutamic decarboxylase-65 (GAD65), and insulinoma-associated antigen (IA)-2 as provided in Table 13A and Table 13B.
# Fresh heparinized blood was incubated with peptide. Concentrations of individual islet-autoantigen peptides were 20 μg/mL and constituent peptides in islet-autoantigen pools were 4 ug/mL. Control MHC class II peptide mix CEFT was used at 1 μg/mL. Gliadin peptide pools were added to whole blood assays at 25 μM. Whole blood assays were incubated for 24 h at 37° C. in 5% CO2. Plasma was separated from blood after centrifugation at 500×g for 10 minutes at room temperature and then transferred to a corresponding well in a “mirror image” sterile 96-well plate. and frozen at −80° C. until use. Multiplex bead-based cytokine assays (MAGPix) were performed according to manufacturer's instructions on thawed plasma. Concentrations of interferon (IFN)-γ-induced protein-10 (IP-10), interleukin (IL)-2 and IFN-γ. Table 14 is a summary of the results for the whole blood cytokine assays which expresses the data in the number of subjects that are positive for ≥1.25 fold production of cytokine over cells incubated with medium only (background).
# undepleted whole blood [2] = assay: Whole blood cytokine assay, IFNg, undepleted blood, number of subjects with >=1.25 fold over medium (Example 2)
# Description: as §1
# (§2) Fresh heparinized blood was incubated with peptide. Concentrations of individual islet-autoantigen peptides were 20 μg/mL and constituent peptides in islet-autoantigen pools were 4 ug/mL. Control MHC class II peptide mix CEFT was used at 1 μg/mL. Gliadin peptide pools were added to whole blood assays at 25 μM. Whole blood assays were incubated for 24 h at 37° C. in 5% CO2. Plasma was separated from blood after centrifugation at 500×g for 10 minutes at room temperature and then transferred to a corresponding well in a “mirror image” sterile 96-well plate. and frozen at −80° C. until use. Multiplex bead-based cytokine assays (MAGPix) were performed according to manufacturer's instructions on thawed plasma. Concentrations of interferon (IFN)-γ-induced protein-10 (IP-10), interleukin (IL)-2 and IFN-γ. […]
# undepleted whole blood [3] = assay: Whole blood cytokine assay, IL-2, undepleted blood, number of subjects with >=1.25 fold over medium (Example 2)
# Description: as §1, §2
Substance,T1D subjects showing significant IP-10 response (fold change over background greater than 1.25) (undepleted whole blood [1]),T1D subjects showing significant IFNg response (fold change over background greater than 1.25) (undepleted whole blood [2]),T1D subjects showing significant IL-2 response (fold change over background greater than 1.25) (undepleted whole blood [3])
"20150-01: peptide tested in Example 2 whole blood cytokine assays (Tables 13A/13B, 14) (FYTPKTRREAEDLQGSL)",Greater than 50%,,
"L2P1-051: peptide tested in Example 2 whole blood cytokine assays (Tables 13A/13B, 14) (NMFTYEIAPVFVLLEYV)",Greater than 50%,,
"L3P2-076: peptide tested in Example 2 whole blood cytokine assays (Tables 13A/13B, 14) (GRTGTYILIDMVLNRMA)",Greater than 50%,> 50%,> 50%
"20150-24: peptide tested in Example 2 whole blood cytokine assays (Tables 13A/13B, 14) (PLLALLALWGPDPAAAF)",Greater than 50%,> 50%,> 50%
